Among all 1,200 compounds or so, fewer than 10 were called active. Calls come from the whole dose curve; as a rule, active = well fitted curve in the direction sought with a large enough effect; inconclusive = small, poorly fitted or top-dose-only effect, or another doubt; inactive = no such curve, though single readings can be large or run the other way. The list shows a part of the results.

This test is described as follows: Confirmatory qHTS assay for inhibitors of Activation Induced Cytidine Deaminase (AID): UDG signals. Note: 0% is about no effect. The note with it: UDG coupled enzyme activity counter-screen; at 115 µM (top of the series) unless noted. In outline:
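UDG readout, a counterscreen: AID (1 uM, 4/3x) plus UDG (2 U/mL, 4/3x) preincubated 10 min with compound (7.32 nM - 114 uM final), then 4 h with DJC20/DJC23 substrates at room temperature; NaOH added, fluorescence read at 560/665 nm.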
Take `COc1ccc(C)cc1NC(=O)COCc1cc(-c2ccc(F)cc2)on1`: the activity change, negative = inhibition is inactive: -3.41%.

As to `Cc1ccc(C)c(Oc2nc3c(c(=O)n(C)c(=O)n3C)n2Cc2ccccc2)c1`, the activity change, negative = inhibition was inactive: -10%.

`COc1ccccc1C(=O)Oc1c(Sc2ccccc2)c(C)nn1-c1ccccc1`: the activity change, negative = inhibition is inactive: 10.6%.

For `CC(C)CCn1c(Oc2ccccc2F)nc2c1c(=O)n(C)c(=O)n2C`, the activity change, negative = inhibition is inactive: -1.24%.

For the compound `Cc1ccc(Cl)cc1N1CCN(C(=O)c2ccc(CS(=O)c3ccccc3)o2)CC1` (stereo unspecified), the activity change, negative = inhibition is inactive: 0.892%.

In the case of `Cc1ccc(C)c(N2CCN(C(=O)c3cc(S(=O)(=O)N4CCCCC4)cn3C)CC2)c1`, the activity change, negative = inhibition was inactive: -7.73%.

For `Cc1cccc(OCC(=O)N(Cc2cccc(Cl)c2)Cc2ccco2)c1C`, the activity change, negative = inhibition is inactive: 0.566%.

For `CCCC(=O)Oc1c(Sc2ccc(Cl)cc2)c(C)nn1-c1ccccc1`, the activity change, negative = inhibition is inactive: -2.71%.

`Cc1ccc(C)c(NC(=O)Cn2c(=O)n(Cc3ccco3)c(=O)c3ccc(C(=O)NC4CCCC4)cc32)c1`: the activity change, negative = inhibition is inactive: -1.83%.

Take `COc1ccc(N2CCN(C(=O)c3nn(C)c4c3CSc3ccccc3-4)CC2)cc1`: the activity change, negative = inhibition is inactive: -14.2%.

For `COC(=O)c1c(NC(=O)CCCOc2ccccc2)sc2c1CCC(C)C2` (stereo unspecified), the activity change, negative = inhibition is inactive: -6.06%.

`Cc1ccc(C(=O)c2cn(Cc3ccccc3F)c3cc4c(cc3c2=O)OCO4)cc1`: the activity change, negative = inhibition was inactive: -2.21%.

For `CC(C)(C)c1ccc(S(=O)(=O)c2cnc(SCC(=O)Nc3ccc(F)c(Cl)c3)[nH]c2=O)cc1`, the activity change, negative = inhibition was inactive: -1.75%.

`CN(C(=O)c1oc(=O)c2ccccc2c1-c1ccccc1)c1cccc(Cl)c1`: the activity change, negative = inhibition is inactive: 0.306%.

As for `CCN1CCN(CCCNC(=O)c2ccc3c(c2)sc2nc(-c4ccc(C)cc4)cn23)CC1`, the activity change, negative = inhibition was inactive: -1.97%.

Consider `Cc1cccc(-n2ncc(C(=O)NCc3ccco3)c2C2CCN(C(=O)OC(C)(C)C)CC2)c1`, for which the activity change, negative = inhibition was inactive: -10.2%.

In the case of `CCOc1ccc(NC(=O)Cn2c(=O)n(Cc3ccccc3)c(=O)c3c4c(sc32)CN(C(C)=O)CC4)cc1`, the activity change, negative = inhibition is inactive: -6.63%.

In the case of `Cc1cccc(C(=O)Nc2sc3c(c2C(=O)O)CCCC3)c1`, the activity change, negative = inhibition was inactive: -2.07%.

For the compound `CCOc1ccc(Nc2c(S(=O)(=O)c3ccc(C)cc3)cnc3ccc(OC)cc23)cc1`, the activity change, negative = inhibition is inactive: -6.81%.

`COc1cccc(Nc2cc(-c3ccccc3)nc(C)n2)c1`: the activity change, negative = inhibition was inactive: -0.275%.

Consider `O=c1cc2nc(-c3cccs3)nc(SCCOc3ccc(Cl)cc3)n2[nH]1`, for which the activity change, negative = inhibition is inactive: 5.95%.

Regarding `CCCCCCSc1nc(N)c2c3c(sc2n1)CCCC3C` (stereo unspecified), the activity change, negative = inhibition was inactive: -13.7%.

`CC(C)Oc1ccc(C(=O)NCCc2csc(-c3cccc(F)c3)n2)cc1`: the activity change, negative = inhibition is inactive: 2.66%.

On to `Cc1cc(OCC(=O)N(Cc2ccc(N(C)C)cc2)C2CCS(=O)(=O)C2)cc(C)c1Cl` (stereo unspecified), for which the activity change, negative = inhibition was inactive: -8.74%.

For the compound `Cc1ccc(C)c(N2CCN(C(=O)c3cc(S(=O)(=O)N4CCC(C)CC4)cn3C)CC2)c1`, the activity change, negative = inhibition is inactive: -15.4%.

Regarding `COc1ccc(CC(=O)NCC(c2cccs2)S(=O)(=O)c2ccc(Cl)cc2)cc1` (stereo unspecified), the activity change, negative = inhibition was inactive: -11.8%.

`COc1ccc(-c2noc(N3CCC(C(=O)N(C)c4cc(Cl)ccc4OC)CC3)n2)cc1`: the activity change, negative = inhibition was inactive: -3.46%.

For `CC1=C(C(=O)Nc2ccccc2)C(c2cc(Br)ccc2F)n2ncc(C(=O)Nc3ccccc3)c2N1` (stereo unspecified), the activity change, negative = inhibition is inactive: -3.33%.

As to `Cc1ccc(C)c(Cn2nc(-c3cc(C)ccc3C)ccc2=O)c1`, the activity change, negative = inhibition was inactive: -10.4%.

Regarding `COc1cccc(N2CCN(C(=O)c3cnn(-c4ccc(C)cc4C)c3C3CCN(C(=O)OC(C)(C)C)CC3)CC2)c1`, the activity change, negative = inhibition was inactive: -4.76%.

With `CCOC(=O)c1c(Oc2ccc(C(C)=O)cc2)nnc(-c2ccccc2)c1-c1ccccc1`, the activity change, negative = inhibition was inactive: 2.33%.

For the compound `CCN(CC)CCCNC(=O)c1ccc2c(Cl)c3c(nc2c1)CCCC3`, the activity change, negative = inhibition was inactive: -1.59%.

For the compound `O=C(O)c1ccc2c(c1)N(Cc1ccc(F)cc1Cl)C(=O)c1ccccc1S2`, the activity change, negative = inhibition is inactive: 12.6%.

In the case of `CCn1c(SCc2ccc(F)cc2Cl)nc(=O)c2c(C(=O)OC)cc(C3CC3)nc21`, the activity change, negative = inhibition is inactive: -1.22%.

On to `Cc1ccc(CSc2nc(-c3ccc(C(C)(C)C)cc3)nc3cc(=O)[nH]n23)cc1`, for which the activity change, negative = inhibition is inactive: -11.4%.

In the case of `CCOCCCNC(=O)c1cn(CC)c2ccc(S(=O)(=O)N3CCc4ccccc4C3)cc2c1=O`, the activity change, negative = inhibition was inactive: -2.99%.

As for `Cc1nc(-n2nc(C)c(CCC(C)C)c2C)sc1C(=O)Nc1cccc(Cl)c1`, the activity change, negative = inhibition was inactive: 0.214%.

Take `CCOc1ccc(N(CC)C(=O)CCc2nc(-c3ccccc3F)no2)cc1`: the activity change, negative = inhibition is inactive: -9.82%.

Regarding `CC(C)c1ccc(NC(=O)c2ccc3c(O)c(S(=O)(=O)c4ccccc4)c(=O)[nH]c3c2)cc1`, the activity change, negative = inhibition was inactive: 1.07%.

For `Cc1ccc(CNC(=O)c2sc3nc4n(c(=O)c3c2C)CCCCC4)cc1`, the activity change, negative = inhibition is inactive: -0.0061%.

With `Cc1ccc(N2CCN(C(=O)NCc3noc4ccc(C)cc34)CC2)c(C)c1`, the activity change, negative = inhibition is inactive: -5.98%.

Regarding `CCOC(=O)N1CCc2c(sc(NCc3cccs3)c2C(=O)Nc2ccc(OC)cc2OC)C1`, the activity change, negative = inhibition is inactive: -29.7%.

Regarding `O=C(CC1N=C2c3ccccc3N=C(SCc3cccc(Cl)c3)N2C1=O)NCCc1ccccc1` (stereo unspecified), the activity change, negative = inhibition is inactive: -3.02%.

As to `COc1ccc(CC(=O)N(Cc2nc(-c3ccc(C)cc3)no2)C(C)C)cc1`, the activity change, negative = inhibition was inactive: 5.81%.

As to `COc1ccc(C2CC(=O)N3CN(C4CCCCC4)CSC3=C2C#N)c(OC)c1` (stereo unspecified), the activity change, negative = inhibition was inactive: -11.5%.

Turning to `Cc1c(C(=O)NCc2cccc(Cl)c2)sc2nc3n(c(=O)c12)CCCC3`, the activity change, negative = inhibition was inactive: -2.09%.

Consider `CCn1c(C)c(C)c2cc(C(=O)N3CCN(c4ccccc4)CC3)ccc21`, for which the activity change, negative = inhibition is inactive: -3.16%.

For `CCOc1ccccc1NC(=O)c1c2c(nc3ccccc13)C(=O)N(C1CCCCC1)C2`, the activity change, negative = inhibition is inactive: 4.66%.

With `COc1ccccc1CC(=O)Nc1ccc2nc(Nc3cccc(C(F)(F)F)c3)cc(C)c2c1`, the activity change, negative = inhibition is inactive: -7.35%.

Take `Cc1ccc(Cl)cc1N1CCN(C(=O)c2cnn(C)c2C2CCN(C(=O)OC(C)(C)C)CC2)CC1`: the activity change, negative = inhibition is inactive: -9.92%.

Consider `Cc1cc(C)c(NC(=O)CCCn2c(C)c3cnn(-c4ccccc4)c(=O)c3c2C)c(C)c1`, for which the activity change, negative = inhibition was inactive: -9.84%.

As for `Cc1ccc(-n2nc3c(N4CCC(C(=O)NC(C)c5ccccc5)CC4)nnc(C)c3c2C)cc1` (stereo unspecified), the activity change, negative = inhibition was inactive: 6.34%.

On to `Cc1ccc(C(=O)Nc2ccccc2C(=O)O)cc1S(=O)(=O)N1CCCCCC1`, for which the activity change, negative = inhibition was inactive: -0.658%.

Regarding `Cc1ccc2c(c1)c(=O)c(C(=O)c1ccc3c(c1)OCO3)cn2Cc1cccc(F)c1`, the activity change, negative = inhibition is inactive: 1.92%.

As for `Cc1cc(Cl)ccc1OCC(=O)N1CCC(c2nc3ccccc3o2)CC1`, the activity change, negative = inhibition was inactive: -9.75%.

Take `Cc1nc(-c2ccc(S(=O)(=O)N(Cc3ccccc3)C(C)C)cc2)co1`: the activity change, negative = inhibition was inactive: -1.18%.

`Cn1c(=O)c2sccc2n2c(CCCC(=O)Nc3ccc(Oc4ccc(Cl)cc4)cc3)nnc12`: the activity change, negative = inhibition is inactive: -2.42%.

For `COc1ccc(Nc2nc3ccccc3nc2NS(=O)(=O)c2ccc(Cl)cc2)cc1OC`, the activity change, negative = inhibition is inactive: 8.81%.

As to `Cc1ccccc1OCc1nnc(SCc2cc(=O)c3ccc(C)c(C)c3[nH]2)n1C`, the activity change, negative = inhibition is inactive: -4.03%.

In the case of `COc1ccc(-c2cc(C(F)(F)F)nc(NCCc3ccccc3)n2)cc1`, the activity change, negative = inhibition is inactive: 8.87%.

In the case of `O=C(/C=C/c1cn(CC(O)CN2CCCCCC2)c2ccccc12)c1ccc(Br)cc1` (stereo unspecified), the activity change, negative = inhibition is inactive: -8.82%.

For `COc1cc2cc(CNc3ccccc3)c(=O)n(CC(=O)Nc3cc(C)cc(C)c3)c2cc1OC`, the activity change, negative = inhibition is inactive: -5.45%.

As to `CCCCN(CC)CCNC(=O)C1CCN(c2nnc(C)c3c(C)n(-c4ccc(C)cc4)nc23)CC1`, the activity change, negative = inhibition is inactive: -1.82%.

`CCN(CCCNC(=O)c1cc2c(=O)[nH]c3ccc(C)cc3c2s1)Cc1ccccc1`: the activity change, negative = inhibition was inactive: 2.74%.

Turning to `COc1cccc(N2CCN(c3ncc4c(n3)CCN(Cc3ccc(Br)cc3)C4)CC2)c1`, the activity change, negative = inhibition is inactive: -2.96%.

With `CCCCN(C)CC(O)Cn1cc(/C=C/C(=O)c2ccc(OCC)cc2)c2ccccc21` (stereo unspecified), the activity change, negative = inhibition was inactive: -1.14%.

For the compound `CCOC(=O)C1=C(CN(C)Cc2ccccc2)NC(=O)NC1c1ccc(OC(C)C)cc1` (stereo unspecified), the activity change, negative = inhibition was inactive: -9.28%.

In the case of `CCc1ccc(C(=O)c2cn(Cc3ccccc3)c3cc(OC)c(OC)cc3c2=O)cc1`, the activity change, negative = inhibition is inactive: -0.871%.

Regarding `Cc1c(NC(=O)c2ccc(-c3ccc(F)cc3)o2)cccc1-c1nc2ncccc2o1`, the activity change, negative = inhibition is inactive: 0.635%.

As to `Cc1ccc(S(=O)(=O)Nc2nc3n(n2)C(c2ccc(Cl)cc2)C=C(c2ccccc2)N3)cc1` (stereo unspecified), the activity change, negative = inhibition was inactive: -1.07%.

In the case of `Cc1ccc(CCNC(=O)c2ccc(CSc3nc4ccncc4n3Cc3ccc(F)cc3)cc2)cc1`, the activity change, negative = inhibition is inactive: -1.17%.

Turning to `Cc1ccc(Cl)cc1N1CCN(C(=O)c2cc(S(=O)(=O)N3CCCCC3)cn2C)CC1`, the activity change, negative = inhibition was inactive: 0.844%.

With `Cc1ccc2ccc3cc(C(=O)Nc4ccc(C)c(F)c4)nc3c2[nH]1`, the activity change, negative = inhibition was inactive: 3.18%.

With `CCc1ccc(CN(Cc2ccco2)C(=O)c2ccc(C)cc2)cc1`, the activity change, negative = inhibition is inactive: -7.11%.

For `Cn1c(=O)c2c(-c3ccccc3Br)n(Cc3ccccc3)cc2n(C)c1=O`, the activity change, negative = inhibition was inactive: -1.16%.

In the case of `O=C(NCCCN1CCCCC1)c1ccc2c(c1)sc1nc(-c3ccc(F)cc3)cn12`, the activity change, negative = inhibition was inactive: 2.98%.

`Cc1ccccc1NC(=O)c1c(NC(=O)C(F)(F)F)sc2c1CCCCC2`: the activity change, negative = inhibition is inactive: 6.21%.

On to `CCCN(C(=O)c1sc2nc3n(c(=O)c2c1C)CCCC3)c1ccccc1C`, for which the activity change, negative = inhibition is inactive: -5.5%.

For the compound `CCOC(=O)c1c(C)oc2nc(C)nc(N3CCN(c4cccc(C(F)(F)F)c4)CC3)c12`, the activity change, negative = inhibition was inactive: -3.41%.

Regarding `Cc1ccc(C2C=C(c3ccccc3)Nc3nc(NS(=O)(=O)c4ccc(C)cc4)nn32)cc1` (stereo unspecified), the activity change, negative = inhibition is inactive: 0.761%.

On to `CCCn1c2ccccc2c2cnn(CC(=O)N(CC)c3cc(C)ccc3C)c(=O)c21`, for which the activity change, negative = inhibition is inactive: -8.52%.

These data come from PubChem BioAssay AID1347431 (National Center for Advancing Translational Sciences (NCATS), 2020).
